Like-named read-outs stand apart in the source and are kept apart here.
Set-up: species or system Female Balb/c mice
Settings: mouse, in vivo, iv
Protocol: The pharmacokinetics of recombinant human chitinase in mice were determined as follows. Female Balb/c mice, 6-8 weeks old, were injected intravenously in the tail vein with 0.5 mg/kg, 5.0 mg/kg and 50 mg/kg recombinant human chitinase. For each dose, mice were terminally bled at 0.01, 0.25, 1, 8 and 24 hours after injection (2 animals were used per time point per dosage). Serum samples were then assayed for chitinase activity and concentration.

B1: A: rH-Chitinase: Recombinant human chitinase (full length, pRc/CMV-MO-13B, SEQ ID NO: 4) produced in COS cells according to Example 5A (protein)
chain: MVRSVAWAGFMVLLMIPWGSAAKLVCYFTNWAQYRQGEARFLPKDLDPSLCTHLIYAFAGMTNHQLSTTEWNDETLYQEFNGLKKMNPKLKTLLAIGGWNFSTQKFTDMVATANNRQTFVNSAIRFLRKYSFDGLDLDWEYPGSQGSPAVDKERFTTLVQDLANAFQQEAQTSGKERLLLSAAVPAGQTYVDAGYEVDKIAQNLDFVNLMAYDFHGSWEKVTGHNSPLYKRQEESGAAASLNVDAAVQQWLQKGTPASKLILGMPTYGRSFTLASSSDTRVGAPATGSGTPGPFTKEGGMLAYYEVCSWKGATKQRIQDQKVPYIFRDNQWVGFDDVESFKTKVSYLKQKGLGGAMVWALDLDDFAGFSCNQGRYPLIQTLRQELSLPYLPSGTPELEVPKPGQPSEPEHGPSPGQDTFCQGKADGLYPNPRERSSFYSCAAGRLFQQSCPTGLVFSNSCKCCTWN
Q: What does the source list for B1?
A: AUC (area under curve to time infinity) (0.5 mg/kg): 31.24 µg/mL/h; Cmax (peak serum concentration) (0.5 mg/kg): 22.30 µg; Vss (steady state volume of distribution) (0.5 mg/kg): 12.03 mL/kg; cL (clearance) (0.5 mg/kg): 16.01 mL/h/kg; half-life (0.5 mg/kg): 0.74 h; AUC (area under curve to time infinity) (5 mg/kg): 278.50 µg/mL/h; Cmax (peak serum concentration) (5 mg/kg): 162.84 µg; Vss (steady state volume of distribution) (5 mg/kg): 13.61 mL/kg; cL (clearance) (5 mg/kg): 17.95 mL/h/kg; half-life (5 mg/kg): 1.38 h; AUC (area under curve to time infinity) (50 mg/kg): 2505.83 µg/mL/h; Cmax (peak serum concentration) (50 mg/kg): 1179.19 µg; Vss (steady state volume of distribution) (50 mg/kg): 52.92 mL/kg; cL (clearance) (50 mg/kg): 19.95 mL/h/kg; half-life (50 mg/kg): 2.33 h
